These are yes or no findings as the source states them, for the method shown. Binding seen in cells or lysates may run through a third protein. Some entries that bind do so weakly or less than the wild type.

Protein sequences, listed by entry. Tags and fused reporters are not part of them.
UniProt P28033: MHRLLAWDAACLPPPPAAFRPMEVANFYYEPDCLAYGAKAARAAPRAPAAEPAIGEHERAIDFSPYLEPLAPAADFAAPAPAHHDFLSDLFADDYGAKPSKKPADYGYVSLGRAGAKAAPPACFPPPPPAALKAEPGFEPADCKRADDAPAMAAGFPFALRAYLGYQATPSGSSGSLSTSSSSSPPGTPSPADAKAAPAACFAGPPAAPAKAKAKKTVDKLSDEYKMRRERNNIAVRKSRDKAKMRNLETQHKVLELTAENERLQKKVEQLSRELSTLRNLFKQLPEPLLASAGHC
UniProt Q04207: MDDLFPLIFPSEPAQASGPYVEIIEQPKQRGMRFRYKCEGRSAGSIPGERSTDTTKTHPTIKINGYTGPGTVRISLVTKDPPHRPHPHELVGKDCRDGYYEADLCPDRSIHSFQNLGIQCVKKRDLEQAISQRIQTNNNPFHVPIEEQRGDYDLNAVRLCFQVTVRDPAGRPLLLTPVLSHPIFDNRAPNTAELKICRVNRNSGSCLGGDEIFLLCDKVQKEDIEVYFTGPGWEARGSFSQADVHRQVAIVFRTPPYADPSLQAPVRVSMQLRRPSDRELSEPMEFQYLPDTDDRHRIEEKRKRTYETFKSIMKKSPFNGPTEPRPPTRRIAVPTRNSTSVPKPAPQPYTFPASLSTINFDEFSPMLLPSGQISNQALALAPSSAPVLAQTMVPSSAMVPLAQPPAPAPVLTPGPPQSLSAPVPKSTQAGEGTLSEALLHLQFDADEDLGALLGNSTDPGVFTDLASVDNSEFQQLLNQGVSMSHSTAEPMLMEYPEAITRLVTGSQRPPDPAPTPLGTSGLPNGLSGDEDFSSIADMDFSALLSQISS

This test addresses CEBPβ (CCAAT-enhancer-binding protein β), mouse brain (mouse (endogenous in APP/PS1 and C57BL/6 mouse brain)) (UniProt P28033). The experiment in a line: co-IP; brain homogenates of APP/PS1 Tg and WT mice treated with vehicle or CA-SBEβCD NPs (10 or 30 mg/kg CA, 5 months); IP with anti-CEBPβ antibody or control IgG, 16 h at 4 °C, True-Blot IP beads; blot with anti-NFκB antibodies.

Regarding “NFκB p65 subunit, mouse brain (from UniProt Q04207 1-549)”, the binding entry is listed as “binds”.

(Values after paper PMC8989877.)
